Measurements published in patent publication US20250101063A1 (Sichuan Gooddoctor Panxi Pharmaceutical Co., Ltd., priority 2022, published 2025).
Where no end group is shown, it is not given here. [ ]: non-standard residue; d: D form.

Tests used:
[1] = general procedure: Fmoc solid-phase peptide synthesis; 2-Chlorotrityl Chloride Resin (0.73 mmol/g); DIC/HOBt; settings: for step yield: purification step; for final purity (method not given): whole synthesis, scale of the general procedure 7.71 g resin (SD=0.73 mmol/g)
[2] = general procedure: Fmoc solid-phase peptide synthesis; 2-Chlorotrityl Chloride Resin; DIC/HOBt; settings: whole synthesis, scale of the general procedure 7.71 g resin (SD=0.73 mmol/g)

Row | Substance | step yield [1] [%] | final purity (method not given) [1] [%] | step yield ([1]; purification yield) [%] | crude yield [2] [%]
1 | AEPVPQAKPRKVAAQ | 43.7 | 100 | – | –
2 | Ala-Lys-Pro-Arg (AKPR; printed: Ala-Lys-Pro-Arg) | 17.3 | 98.79 | – | –
3 | Arg-Lys-Val-Ala (RKVA; printed: Arg-Lys-Val-Ala) | 32.5 | 97.48 | – | –
4 | DPVPQAK | – | 99.69 | – | –
5 | EAVPQAK | – | 98.45 | – | –
6 | EGVPQAK | – | 97.45 | – | –
7 | EPAPQAK | 56.9 | 99.14 | – | –
8 | EPVGQAK | – | 97.89 | – | –
9 | EPVPAAK | 39.7 | 98.55 | – | –
10 | EPVPEAK | – | 97.91 | – | –
11 | EPVPQAKP | – | 98.17 | – | –
12 | EPVPQAKPR | – | 98.76 | – | –
13 | EPVPQAKPRK | 51.1 | 99.00 | – | –
14 | EPVPQAKPRKV | – | 98.46 | – | –
15 | EPVPQAKPRKVA | – | 97.89 | – | –
16 | EPVPQAR | 42.3 | 98.98 | – | –
17 | EPV[dP]QAK | 45.6 | 98.06 | – | –
18 | EP[dV]PQAK | 48.5 | 98.51 | – | –
19 | Gln-Ala-Lys-Pro (QAKP; printed: Gln-Ala-Lys-Pro) | 22.9 | 96.01 | – | –
20 | Glu-Pro-Val-Pro (EPVP; printed: Glu-Pro-Val-Pro) | 57.0 | 99.01 | – | –
21 | H-KEPVPQAKPRKVAAQ-OH | 59.5 | 99.44 | 59.5 | 74.7
22 | KAPVPQAKPRKVAAQ | 45.8 | 99.36 | – | –
23 | KEGVGQAKGRKVAAQ | 59.1 | 100 | – | –
24 | KEGVGQAKPRKVAAQ | 59.4 | 100 | – | –
25 | KEGVPQAKGRKVAAQ | 53.4 | 100 | – | –
26 | KEGVPQAKPRKVAAQ | 50.3 | 100 | – | –

Row | Substance | step yield [1] [%] | final purity (method not given) [1] [%] | step yield ([1]; purification yield) [%] | crude yield [2] [%]
27 | KEPAPQAKPRKVAAQ | 51.8 | 99.90 | – | –
28 | KEPIPQAKPRKVAAQ | 39.7 | 99.54 | – | –
29 | KEPVAQAKPRKVAAQ | 46.5 | 99.54 | – | –
30 | KEPVGQAKGRKVAAQ | 53.2 | 100 | – | –
31 | KEPVGQAKPRKVAAQ | 38.5 | 99.12 | – | –
32 | KEPVPAAKPRKVAAQ | 51.3 | 99.42 | – | –
33 | KEPVPQ | 91.8 | 98.83 | – | –
34 | KEPVPQAAPRKVAAQ | 52.6 | 99.72 | – | –
35 | KEPVPQAK | 26.1 | 98.22 | – | –
36 | KEPVPQAKGRKVAAQ | 55.5 | 100 | – | –
37 | KEPVPQAKPAKVAAQ | 42.0 | 98.06 | – | –
38 | KEPVPQAKPR | 25.7 | 97.47 | – | –
39 | KEPVPQAKPRAVAAQ | 42.3 | 99.73 | – | –
40 | KEPVPQAKPRKAAAQ | 39.2 | 99.10 | – | –
41 | KEPVPQAKPRKVAAA | 53.5 | 99.68 | – | –
42 | KEPVPQAKPRKVAAN | 42.8 | 98.79 | – | –
43 | KEPVPQAKPRKVAA[dQ] | 44.2 | 99.03 | – | –
44 | KEPVPQAKPRKVA[dA]Q | 37.3 | 99.12 | – | –
45 | KEPVPQAKPRKV[dA]AQ | 46.3 | 97.94 | – | –
46 | KEPVPQAKPRK[dV]AAQ | 73.3 | 100 | – | –
47 | KEPVPQAKPR[dK]VAAQ | 67.1 | 100 | – | –
48 | KEPVPQAKP[dR]KVAAQ | 63.4 | 100 | – | –
49 | KEPVPQA[dK]PRKVAAQ | 71.5 | 100 | – | –
50 | KEPVPQ[dA]KPRKVAAQ | 86.5 | 100 | – | –
51 | KEPVP[dQ]AKPRKVAAQ | 59.8 | 100 | – | –
52 | KEPV[dP]QAKPRKVAAQ | 48.6 | 100 | – | –

Row | Substance | step yield [1] [%] | final purity (method not given) [1] [%] | step yield ([1]; purification yield) [%] | crude yield [2] [%]
53 | KEP[dV]PQAKPRKVAAQ | 54.8 | 99.74 | – | –
54 | KE[dP]VPQAKPRKVAAQ | 54.3 | 100 | – | –
55 | K[dE]PVPQAKPRKVAAQ | 53.8 | 100 | – | –
56 | Lys-Glu-Pro-Val-Pro (KEPVP; printed: Lys-Glu-Pro-Val-Pro) | 42.8 | 99.94 | – | –
57 | Lys-Val-Ala-Ala (KVAA; printed: Lys-Val-Ala-Ala) | 27.0 | 98.17 | – | –
58 | NPVPQAK | 58.3 | 99.53 | – | –
59 | PVPQAK | 45.2 | 99.87 | – | –
60 | PVPQAKP | – | 99.42 | – | –
61 | PVPQAKPR | – | 99.47 | – | –
62 | Pro-Arg-Lys-Val (PRKV; printed: Pro-Arg-Lys-Val) | 17.7 | 97.47 | – | –
63 | Pro-Gln-Ala-Lys (PQAK; printed: Pro-Gln-Ala-Lys) | 22.0 | 98.20 | – | –
64 | Pro-Val-Pro-Ala (PVPA; printed: Pro-Val-Pro-Ala) | 60.7 | 100 | – | –
65 | Pro-Val-Pro-Gln (PVPQ; printed: Pro-Val-Pro-Gln) | 48.7 | 100 | – | –
66 | Pro-Val-Pro-Gln-Ala (PVPQA; printed: Pro-Val-Pro-Gln-Ala) | – | 99.93 | – | –
67 | Pro-Val-Pro-Glu-Ala (PVPEA; printed: Pro-Val-Pro-Glu-Ala) | 47.9 | 100 | – | –
68 | Pro-Val-Pro-Ile-Ala (PVPIA; printed: Pro-Val-Pro-Ile-Ala) | 60.8 | 99.87 | – | –
69 | Pyro-Glu-Leu-Lys-Glu-Pro-Val-Pro-Gln-Ala-Lys-Pro-Arg-Lys-Val-Ala-Ala-Gln (ELKEPVPQAKPRKVAAQ; N-terminal pyroglutamate; acetate salt; printed: Glu-Leu-Lys-Glu-Pro-Val-Pro-Gln-Ala-Lys-Pro-Arg-Lys-Val-Ala-Ala-Gln) | 48.6 | 99.86 | – | –
70 | RKDVYEPVPQAK | 48.5 | 98.83 | – | –
71 | RKDVYKEPVPQAKPRKVAAQ | 27.4 | 100 | – | –
72 | RKDVYPVPQ | 57.1 | 98.08 | – | –
73 | SSEDIKEPVPQ | 49.9 | 98.08 | – | –
74 | VPPKEPVPQAKPRKVAAQ | 37.9 | 100 | – | –
75 | VPYKEPVPQAKPRKVAAQ | 39.7 | 99.40 | – | –
76 | Val-Ala-Ala-Gln (VAAQ; printed: Val-Ala-Ala-Gln) | 53.0 | 100 | – | –
77 | [dK]EPVPQAKPRKVAAQ | 52.4 | 100 | – | –
